Results published in US11572475B2, “Carbocyanines for G-quadruplex DNA stabilization and telomerase inhibition” (GEORGIA STATE UNIVERSITY RESEARCH FOUNDATION, INC., priority 2011, dated 2023).

Tests used:
c-myc = assay: Isothermal calorimetry, c-myc; format: binding; settings: ITC, 25° C.
Experimental: (§1) DNA binding is dependent on enthalpy and entropy, components of the Gibbs free energy. Isothermal calorimetry measures the heat absorbed (endothermic binding) or released (exothermic binding) in binding at the μcalorie level. By examining the thermodynamics of different compounds, compounds can be analyzed to determine what factors favor quadruplex over duplex DNA binding. Enthalpy and binding constants are determined from measuring the heat change when compound is injected into a DNA solution, and the equations ΔG=ΔH−TΔS ΔG=−RT ln K are used to calculate entropy and Gibbs free energy.
(§2) Solutions of compound (0.2 mM) were injected 30 times into solutions of DNA (0.02 mM) on a VPC-ITC. All solutions were degasses at 25° C. for 15 minutes. TRIS/K^+ buffer was used in the reference cell. The injections were monitored at 25° C. with a reference power of 1 μcal/sec, an initial delay of 300 sec, and a stirring speed of 290. The first injection was 2 μL for 4 sec, with a spacing of 300 sec, and a filter period of 1 sec. The remaining 29 injections were 10 μL volume for a duration of 20 sec, with a spacing of 300 sec, and a filter period of 1 sec. The data was analyzed by VPViewer 2000 software.
(§3) Isothermal calorimetry (ITC) experiments were performed to test the SPR and fluorescence preference in binding c-myc over hTelo. ITC is known to under-estimate binding constants for strong binding compounds in comparison with other techniques such as SPR as shown in Tables 4 and 5 for MH-5 and A-C8, respectively.

hTelo = assay: Isothermal calorimetry, hTelo; format: binding, human; settings: ITC, 25° C.
Experimental: as §1, §2, §3

| SMILES | Stoichiometry, c-myc (c-myc) | ΔG (cal/mol), c-myc (c-myc) | ΔH (cal/mol), c-myc (c-myc) | ΔS cal/(mol C. °), c-myc (c-myc) | Stoichiometry, hTelo (hTelo) | ΔG (cal/mol), hTelo (hTelo) | ΔH (cal/mol), hTelo (hTelo) | ΔS (cal/mol C. °), hTelo (hTelo) |
| --- | --- | --- | --- | --- | --- | --- | --- | --- |
| CC1(C)C(/C=C/C=C2/N(CCC[N+](C)(C)C)c3ccc(Br)cc3C2(C)C)=[N+](CCC[N+](C)(C)C)c2ccc(Br)cc21 [MH5 (28)] | 1.11 ± 0.01 | -8278.85 cal/mol | -3190 ± 40 cal/mol | 17.1 cal/(mol C. °) | – | – | – | – |
| CC1(C)C(/C=C/C(Br)=C/C=C2\N(CCC[N+](C)(C)C)c3ccccc3C2(C)C)=[N+](CCC[N+](C)(C)C)c2ccccc21 [A-C8 (43)] | 1.22 ± 0.01 | -8045.32 cal/mol | -2100 ± 20 cal/mol | 20 cal/(mol C. °) | 1.02 ± 0.02 | -6466.94 cal/mol | -6100 ± 200 cal/mol | 1.15 cal/mol C. ° |
